{"sequences": {"note": "Protein sequences, listed by entry. Tags and fused reporters are not part of them. Residues count along the entry.", "UniProt P02724, residues 20-150": "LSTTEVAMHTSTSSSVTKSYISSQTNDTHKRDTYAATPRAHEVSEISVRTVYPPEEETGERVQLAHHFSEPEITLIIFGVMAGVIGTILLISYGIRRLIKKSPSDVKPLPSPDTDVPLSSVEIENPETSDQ"}, "source": "patent US20220153859A1", "molecular_target": "Human glycophorin A (format not specified) (human) (UniProt P02724)", "test": "screen of humanized Fabs, kinetic assays with human and cyno GPA and red blood cells", "note": "No constants are given. Whether binding was seen depends on the method and setting. Some results given as binding are weak or reduced against the parent protein; the word gives no strength.", "data": [{"binder": "hF-3-103M1 Fab (humanized 3-103, clone M1; parental / wild-type Fab) (Fab, V domains shown) VH: QVQLVQSGAEVKKPGASVKVSCTASGFNIKDTYMLWVRQAPGQGLEWMGRIDPANANSRYDPKFQGRVTITADTSTNTAYMELSSLRSEDTAVYYCVDGYMFAYWGQGTLVTVSS VL: DVVMTQTPLSLSVTPGQPASISCKSSQSLLYSNGKTYLHWLLQKPGQSPQRLIYLVSKLDSGVPDRFSGSGSGTDFTLKISRVEAEDVGVYYCVQGTHFPLTFGQGTKLEIKR", "values": [{"measurement": "binding", "result": "binds"}]}]}
